{"source": "paper PMC11050252", "key": {"[1]": {"target": "T1, calmodulin-dependent protein kinase 4 (CaMK4) (mouse (endogenous in MVEC)) (UniProt P08414)", "T1 sequence": "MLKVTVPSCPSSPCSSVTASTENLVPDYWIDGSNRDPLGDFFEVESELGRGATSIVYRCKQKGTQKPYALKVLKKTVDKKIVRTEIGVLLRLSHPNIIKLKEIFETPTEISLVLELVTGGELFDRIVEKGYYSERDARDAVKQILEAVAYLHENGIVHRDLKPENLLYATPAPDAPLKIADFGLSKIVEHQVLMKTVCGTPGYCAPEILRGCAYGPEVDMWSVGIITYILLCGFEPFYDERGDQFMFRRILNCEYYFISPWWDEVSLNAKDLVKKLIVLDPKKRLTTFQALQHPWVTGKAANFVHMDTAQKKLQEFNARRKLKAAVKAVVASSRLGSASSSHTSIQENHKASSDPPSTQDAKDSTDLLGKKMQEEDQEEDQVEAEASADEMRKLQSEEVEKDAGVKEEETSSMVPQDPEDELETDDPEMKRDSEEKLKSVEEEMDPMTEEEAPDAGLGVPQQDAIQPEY", "experiment": "condition: only untreated and vehicle control treated cells (no necroptosis induction); co-IP; endogenous proteins of untreated and vehicle control treated mouse MVEC (no necroptosis induction); RIPA lysate, antibody, protein G agarose, Western blot"}, "[2]": {"target": "T1, calmodulin-dependent protein kinase 4 (CaMK4) (mouse (endogenous in MVEC))", "experiment": "co-IP; endogenous proteins of mouse MVEC induced to undergo necroptosis (TNFα + Smac mimetic BV6 + caspase-8 inhibitor z-IETD), collected after 4 h; RIPA lysate, 1 μg antibody 1-2 h at 4 °C, protein G agarose overnight at 4 °C, Western blot; rabbit IgG as control; in some panels cells treated 24 h before with vehicle or siRNA to CaMK1, CaMK2, CaMK4 or PGAM5"}, "[3]": {"target": "calmodulin-dependent protein kinase 2 (CaMK2) (mouse (endogenous in MVEC))", "experiment": "co-IP; endogenous proteins of mouse MVEC induced to undergo necroptosis (TNFα + Smac mimetic BV6 + caspase-8 inhibitor z-IETD), collected after 4 h; RIPA lysate, 1 μg antibody 1-2 h at 4 °C, protein G agarose overnight at 4 °C, Western blot; rabbit IgG as control; in some panels cells treated 24 h before with vehicle or siRNA to CaMK1, CaMK2, CaMK4 or PGAM5"}}, "note": "These are yes or no findings as the source states them, for the method shown. In cells and extracts the contact can be indirect. For some of these results: Binding can be weak; no strength is given."}
{"molecule": "calmodulin-dependent protein kinase 2 (CaMK2) (mouse (endogenous in MVEC))", "values": [{"measurement": "binding", "setting": "[1]", "result": "no binding"}, {"measurement": "binding", "setting": "[2]", "result": "binds weakly"}]}
{"molecule": "phosphoglycerate mutase 5 (PGAM5) (protein, UniProt Q8BX10 1-288) MAFRQALQLAACGLAGGSAAVLFSAVAVGKPRGGGDADTRATEPPAWTGARAGRGVWDTNWDRREPLSLINLKKRNVESGEDELTSRLDHYKAKATRHIFLIRHSQYHVDGSLEKDRTLTPLGREQAELTGLRLASLGLKFNKIVHSSMTRAVETTDIISKHLPGVSRVSTDLLREGAPIEPDPPVSHWKPEAVQYYEDGARIEAAFRNYIHRADARQEEDSYEIFICHANVIRYIVCRALQFPPEGWLRLSLNNGSITHLVIRPNGRVALRTLGDTGFMPPDKITRS", "values": [{"measurement": "binding", "setting": "[3]", "result": "binds"}]}
{"molecule": "calmodulin-dependent protein kinase 4 (CaMK4) (protein, UniProt P08414 1-469) MLKVTVPSCPSSPCSSVTASTENLVPDYWIDGSNRDPLGDFFEVESELGRGATSIVYRCKQKGTQKPYALKVLKKTVDKKIVRTEIGVLLRLSHPNIIKLKEIFETPTEISLVLELVTGGELFDRIVEKGYYSERDARDAVKQILEAVAYLHENGIVHRDLKPENLLYATPAPDAPLKIADFGLSKIVEHQVLMKTVCGTPGYCAPEILRGCAYGPEVDMWSVGIITYILLCGFEPFYDERGDQFMFRRILNCEYYFISPWWDEVSLNAKDLVKKLIVLDPKKRLTTFQALQHPWVTGKAANFVHMDTAQKKLQEFNARRKLKAAVKAVVASSRLGSASSSHTSIQENHKASSDPPSTQDAKDSTDLLGKKMQEEDQEEDQVEAEASADEMRKLQSEEVEKDAGVKEEETSSMVPQDPEDELETDDPEMKRDSEEKLKSVEEEMDPMTEEEAPDAGLGVPQQDAIQPEY", "values": [{"measurement": "binding", "setting": "[3]", "result": "binds"}]}
